# Data taken from PubChem BioAssay AID2685 (National Center for Advancing Translational Sciences (NCATS), 2010).
# About 2,100 (0.66%) of roughly 320,000 compounds were called active. Inconclusive results, whose numbers are uncertain, are shown with a selection of clear calls. Calls come from the whole dose curve; as a rule, active = well fitted inhibition curve with a large enough effect in the signal ratio, with a control signal flat (not every such curve was filed as active); inconclusive = small, poorly fitted or top-dose-only effect, or effect the other way, or a change in a side signal; inactive = flat fitted curve, though single readings scatter; the % refers to the signal ratio. Where the call is inconclusive, the potency comes from a doubtful curve fit.
# Test: qHTS Assay for Lipid Storage Modulators in Drosophila S3 Cells
# Conditions: BODIPY lipid droplet fluorescence, 18-24 h, cells fed with added oleic acid; lipid storage change, negative = inhibition: at 46.1 µM (top of the series) unless noted
# Summary of the method: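 Drosophila S3 cells loaded with oleic acid (400 uM, as added) and compounds at several concentrations; lipid droplets imaged by 488-nm laser-scanning cytometry, 500–530 nm intensity and object ratio to cell channel. Percent activity normalized to 20 uM Triacsin C.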
# % is set by controls: 0 for no effect and ±100 for the full control effect; potency is the fitted concentration of half-maximal effect.
Structure (SMILES),Potency,"lipid storage change, negative = inhibition"
Cc1n[nH]c(=O)c2c(NC(=O)CSc3nnnn3-c3ccccc3)oc(C)c12,"inconclusive: 29.1 µM [rising, single point]",
CN(C(=O)COc1ccccc1)c1nc(-c2ccc(F)cc2)cs1,,inconclusive: -8.53%
N=c1c(C(=O)NCc2ccco2)cc2c(=O)n3ccccc3nc2n1CCc1ccccc1,"inconclusive: 9.2 µM [activator, partial curve]",
CNC(=O)c1ccsc1NC(=O)c1ccc(Cl)s1,,inconclusive: -9.46%
Nc1cccc2c1C(=O)N(C(=O)c1ccc(S(=O)(=O)N3CCCCCC3)cc1)C2=O,,inconclusive: -4.95%
CCn1c(SCC(=O)OC)nnc1-c1c[nH]c2ccccc12,,inconclusive: -21.9%
CC(=O)c1ccc(N(CC(=O)NCc2ccc3c(c2)OCO3)C(=O)c2csnn2)cc1,,inconclusive: 39.2%
CCCn1c(SCC(=O)N2CCCCC2)nnc1-c1ccco1,,inconclusive: 13.2%
CCOC(=O)c1cnn(-c2nc3sc4c(c3c(=O)[nH]2)CCCC4)c1N,,inconclusive: -30.5%
Brc1ccc(OCc2nnc(SCC3CCCCC3)o2)cc1,,inconclusive: 21%
CC(C)c1ccc(C2(O)C(=O)Nc3cc(Br)ccc32)c(O)c1 (configuration not stated),"inconclusive: 29.1 µM [cytotoxic, single point]",
CCC1(C)N=C(c2ccc3c(c2)OCO3)CC(c2ccccc2O)N1 (configuration not stated),,inconclusive: -159%
C[C@H]1CCC(=O)N([C@H](CSc2ccccc2)Cc2ccccc2)CC1,"inconclusive: 29.1 µM [falling, single point]",
NS(=O)(=O)c1ccc(CNC(=O)C2(c3ccc(Cl)cc3)CC2)cc1,"inconclusive: 3.66 µM [activator, single point]",
CSc1ncc(C(=O)Nc2ccc(Cl)cc2)c(C)n1,,inconclusive: -19.3%
O=C(CCCn1c(=S)[nH]c2ccsc2c1=O)NCCc1ccccc1,,inconclusive: 4.95%
CC(C)Sc1nc2ccc(N3C(=O)C4CCCCC4C3=O)cc2s1 (configuration not stated),"inconclusive: 4.11 µM [falling, full curve]",
COCCn1c(SCC(=O)Nc2ccc(Cl)c(S(=O)(=O)N(C)C)c2)nc2ccccc21,,inconclusive: 163%
COc1ccc(C(=O)COC(=O)c2cnc(C)cn2)c(OC)c1,"inconclusive: 16.4 µM [activator, partial curve, poor fit]",
CC(C)(C#CCN1CCCC1)OCCC#N,,inconclusive: -8.26%
Cc1ccc2nsnc2c1NC(=O)Cc1ccc(Cl)cc1,,inconclusive: -77.7%
O=C(CCNS(=O)(=O)c1ccccc1)NCCCSc1ccccc1,,inconclusive: 10.3%
CCc1nnc2c(N(C)C)nc3ccccc3n12,,inconclusive: -1.6%
COc1ccc(CN2CCSCC2)cc1C,active: 23.1 µM,

Structure (SMILES),Potency,"lipid storage change, negative = inhibition"
COC(=O)Sc1nc(N2CCOCC2)c2c(c1C#N)CC(C)(C)OC2,,inconclusive: 11.4%
CCCCOc1ccc(C(=O)Nc2ccc(OCC(=O)N3CCOCC3)cc2)cc1,,inconclusive: -26.2%
Cc1ccc(/C=N/Nc2nc(N3CCOCC3)nc(N3CCOCC3)n2)o1,,inconclusive: 0.346%
Cc1cc(C)cc(N2C(=O)CC(Sc3nnnn3-c3ccccc3)C2=O)c1 (configuration not stated),"inconclusive: 29.1 µM [cytotoxic, single point]",
CCOc1ccc(N2C(=O)CC(N3CCN(C(=O)CN4CCCC4)CC3)C2=O)cc1 (configuration not stated),,inconclusive: -22.4%
O=C(O)CCC(=O)N1N=C(c2c(-c3ccccc3)c3cc(Cl)ccc3[nH]c2=O)CC1c1cccs1 (configuration not stated),"inconclusive: 6.51 µM [activator, single point]",
CCc1c(C)nc(SCC(=O)N2CCc3ccccc32)[nH]c1=O,"inconclusive: 0.0046 µM [falling, full curve, poor fit]",
O=C(CC(c1ccccc1)c1ccccc1)NCC1CCCO1 (configuration not stated),,inconclusive: 53.6%
Cc1ccc(NC(=O)c2cccc(OCc3c(C)noc3C)c2)cc1S(=O)(=O)Nc1ccccc1Cl,,inconclusive: 11.4%
CC1(C)CC(=O)C2=C(C1)N(Cc1ccco1)C(=O)C2(NC(=O)C1CCCCC1)C(F)(F)F (configuration not stated),"inconclusive: 0.58 µM [activator, full curve, poor fit]",
Cc1nc(SCc2nnc(-c3ccc(Cl)cc3)o2)c2c3c(sc2n1)CCC3,"inconclusive: 0.184 µM [activator, full curve, poor fit]",
CCN=C(Nc1cccc(F)c1)SC1CC(=O)N(c2ccc(OC)cc2)C1=O (configuration not stated),,inconclusive: -8.71%
Cc1ccc(C2=[N+]([O-])C3(CCCCC/C3=N\NC(N)=S)N(O)C2(C)C)o1 (configuration not stated),,inconclusive: -10.3%
O=C(Oc1ccc(N(C(=O)c2ccncc2)S(=O)(=O)c2cccs2)cc1)c1ccncc1,"inconclusive: 29.1 µM [falling, single point]",
CCc1ccc(OC)c(S(=O)(=O)NCc2cccs2)c1,,inconclusive: -46.8%
O=[N+]([O-])c1cccc(/C=C/c2nc(C=Nc3ccccc3)c(O)o2)c1,"inconclusive: 3.26 µM [activator, partial curve]",
C[C@H](NC(=O)OC(C)(C)C)c1nnc(SCC(=O)Nc2ccc(Br)cc2)o1,,inconclusive: -4.46%
CC(C)(C)c1ccc(Cn2nnc3c(=O)[nH]c(C4CCCN(C(=O)c5ccco5)C4)nc32)cc1 (configuration not stated),,inconclusive: 30.5%
O=C(NCc1ccco1)/C(=C\c1cccnc1)NC(=O)c1ccccc1F,"inconclusive: 0.231 µM [falling, full curve, poor fit]",
C=CCc1c(C)nc(C)nc1N/N=C/c1ccc([N+](=O)[O-])cc1,"inconclusive: 0.231 µM [activator, full curve, poor fit]",
O=S(=O)(Nc1cc(S(=O)(=O)N2CCOCC2)ccc1N1CCCC1)c1cccs1,,inconclusive: 22.9%
Nc1nc(Nc2cccc(Cl)c2)nc(NCCO)c1[N+](=O)[O-],,inconclusive: 18%
COc1ccc(C2=NN(C(=O)CSc3nnc(-c4ccccc4F)o3)C(c3ccco3)C2)cc1 (configuration not stated),"inconclusive: 3.66 µM [activator, full curve]",

# Eight of these compounds, reformatted.
Structure (SMILES) | Potency | lipid storage change, negative = inhibition
CC(=O)c1ccc(N(CC(=O)NCc2ccc3c(c2)OCO3)C(=O)c2csnn2)cc1 |  | inconclusive: 39.2%
O=C(CCCn1c(=S)[nH]c2ccsc2c1=O)NCCc1ccccc1 |  | inconclusive: 4.95%
CC(C)(C#CCN1CCCC1)OCCC#N |  | inconclusive: -8.26%
O=C(CCNS(=O)(=O)c1ccccc1)NCCCSc1ccccc1 |  | inconclusive: 10.3%
Cc1cc(C)cc(N2C(=O)CC(Sc3nnnn3-c3ccccc3)C2=O)c1 (configuration not stated) | inconclusive: 29.1 µM [cytotoxic, single point] | 
C[C@H](NC(=O)OC(C)(C)C)c1nnc(SCC(=O)Nc2ccc(Br)cc2)o1 |  | inconclusive: -4.46%
O=C(NCc1ccco1)/C(=C\c1cccnc1)NC(=O)c1ccccc1F | inconclusive: 0.231 µM [falling, full curve, poor fit] | 
COc1ccc(C2=NN(C(=O)CSc3nnc(-c4ccccc4F)o3)C(c3ccco3)C2)cc1 (configuration not stated) | inconclusive: 3.66 µM [activator, full curve] | 
